Laboratory results: PubChem BioAssay AID504444 (National Center for Advancing Translational Sciences (NCATS), 2011)
Out of some 360,000 compounds screened, about 7,500 (2.1%) were called active. Inconclusive results, whose numbers are uncertain, are shown with a selection of clear calls. Calls come from the whole dose curve; as a rule, active = well fitted inhibition curve with a large enough effect; inconclusive = small, poorly fitted or top-dose-only effect, or effect the other way; inactive = flat fitted curve, though single readings scatter. Where the call is inconclusive, the potency comes from a doubtful curve fit.

Test: Nrf2 qHTS screen for inhibitors; note: nearly all actives have a fitted effect of over 60% in size
Conditions: A549 ARE-Fluc reporter, luciferase luminescence, 18-24 h; activity change, negative = inhibition: at 46 µM (top of the series)
Method in brief: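 Cells were seeded and rested 2 h, then exposed to compounds for 18-24 h. CellTiter-Fluor was read first as a viability measure. BugLite was added 15 min before the final luminescent read of ARE-luciferase activity in A549 cells.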
% is set by controls: 0 for no effect and ±100 for the full control effect; potency is the fitted concentration of half-maximal effect.

SMILES	Potency	activity change, negative = inhibition
COc1ccc(/C=N/NC(=O)c2cccc(NC(=O)c3ccccc3Cl)c2)cc1	inconclusive: 10.3 µM [activator, partial curve, poor fit]	
COC(=O)c1sc(-c2ccc(C(C)(C)C)cc2)cc1NC(=O)/C=C/C(=O)O	inconclusive: 1.3 µM [activator, full curve]	
COc1ccc(C(=O)Cc2ccc3c(c2)OCO3)c(O)c1	inconclusive: 29.1 µM [activator, single point]	
O=C(N/N=C/c1ccccc1O)/C(=C/c1ccccc1)CCO	inconclusive: 20.6 µM [falling, single point]	
COc1cccc(NC(=O)Nc2nnc(N3CCCCC3C)s2)c1 (stereo not drawn)	inconclusive: 1.16 µM [activator, full curve, poor fit]	
C[C@@H](C(=O)NCCc1c[nH]c2ccccc12)[C@H]1C[C@]1(C)[C@H](NC(=O)OCc1ccccc1)c1ccccc1	inconclusive: 25.9 µM [falling, single point]	
CCN1CCN(c2ccc(S(=O)(=O)N3CCCCC3)cc2NC(=O)c2ccc([N+](=O)[O-])s2)CC1	inconclusive: 29.1 µM [falling, single point]	
Cc1nnnn1/C(=C\c1ccccc1)C(=O)OCC(=O)Nc1cccc(S(=O)(=O)N(C)C)c1	inconclusive: 29.1 µM [activator, single point]	
O=C1OC[C@@H]2CCCN2C(=O)[C@H](CC(=O)N(CCO)Cc2ccccc2)C/C=C\CC[C@@H]1Cc1ccc(F)cc1	inconclusive: 29.1 µM [falling, single point]	
Cc1cc(C)c(NN=c2c(=O)c3ccccc3c2=O)c(C)c1	inconclusive: 3.66 µM [activator, full curve, poor fit]	
CCOCCCn1c(=S)[nH]c2cc(C(=O)N3CCN(c4ccccc4)CC3)ccc2c1=O	inconclusive: 29.1 µM [falling, single point]	
CC1(C)CC2CC(C)(CN2S(=O)(=O)c2cccc(C(=O)OCC(=O)NC(N)=O)c2)C1 (stereo not drawn)		inactive: 1.5%
CC(C)c1ccc(NS(=O)(=O)c2ccc3c(c2)NC(=O)CO3)cc1	inconclusive: 32.6 µM [falling, single point]	
CCCCc1ccc(C2C3=C(CC(C)(C)CC3=O)NC3=C2C(=O)c2ccccc23)cc1 (stereo not drawn)	inconclusive: 20.6 µM [falling, single point]	
COc1ccccc1N1CCN(C(=O)c2c(C)oc3ncn(C)c(=O)c23)CC1	inconclusive: 29.1 µM [activator, single point]	
C/C(=N\NC(=O)COc1cc(C)cc(C)c1)c1ccc(N2CCOCC2)cc1	inconclusive: 23.1 µM [falling, partial curve, poor fit]	
O=C(CCn1cccn1)Nc1ccc(Br)cc1F	inconclusive: 29.1 µM [activator, single point]	
C=CCOc1ccc(/C=C(\C#N)C(=O)Nc2ccccn2)cc1		inactive: 2.74%
O=C1CN(S(=O)(=O)c2ccc(F)cc2)c2ccccc2N1	inconclusive: 0.0731 µM [falling, full curve, poor fit]	

SMILES	Potency	activity change, negative = inhibition
Cc1ccccc1Nc1nc(N)nc(COC(=O)c2cccc(S(=O)(=O)NCc3ccccc3)c2)n1	inconclusive: 29.1 µM [falling, single point]	
O=c1[nH]c(CN2CCN(S(=O)(=O)/C=C/c3ccccc3)CC2)nc2ccccc12	inconclusive: 0.164 µM [falling, full curve, poor fit]	
O=c1c(NCc2cccs2)nccn1-c1ccc(F)cc1	inconclusive: 2.91 µM [activator, partial curve, poor fit]	
COc1cccc(NC(=O)CN(CCc2ccccc2)S(=O)(=O)c2ccc(Cl)cc2)c1		inactive: -1.9%
Cc1cc(NCc2ccccc2)nc(-c2ccccc2O)n1		inactive: 21%
Cn1c(CO)cnc1SCc1ccc(Cl)cc1	inconclusive: 18.4 µM [activator, partial curve]	
CCOC(=O)c1ccc(NC(=O)c2ccccc2N(C)S(=O)(=O)c2ccccc2)cc1	inconclusive: 29.1 µM [falling, single point]	
Cc1cccc(-c2nc3c4ccccc4nc(NCCc4ccccc4)n3n2)c1	inconclusive: 18.4 µM [activator, partial curve]	
Cc1cccc(-n2ncc3c2CCCC3NC(=O)C2=CC(=O)CC(C)(C)O2)c1C (stereo not drawn)	inconclusive: 18.4 µM [falling, single point]	
CCOc1ccc(NS(=O)(=O)c2ccc3[nH]c4c(c3c2)CCCCC4)cc1	inconclusive: 8.2 µM [falling, partial curve, poor fit]	
CN1CC(COCc2ccccc2)Oc2ccccc2S1(=O)=O (stereo not drawn)	inconclusive: 18.4 µM [activator, single point]	
CCC(C)(C)n1nnnc1CN1CCC(c2nc3ccc(C)cc3[nH]2)CC1	inconclusive: 14.6 µM [falling, partial curve, poor fit]	
COc1cc2c(cc1OC)C(C)N(C(=O)c1cc3n(n1)C(C(F)(F)F)CC(c1ccco1)N3)CC2 (stereo not drawn)	inconclusive: 29.1 µM [falling, single point]	
CCCCc1nnc(NC(=O)c2oc3ccccc3c2C)s1	inconclusive: 23.1 µM [activator, partial curve]	
Cn1nnnc1SCCNCc1cc(Br)ccc1OCc1ccccc1Cl	inconclusive: 6.51 µM [activator, single point]	
O=C(C1CCN(S(=O)(=O)c2cccc3nsnc23)CC1)N1CCn2c1nc1ccccc12	inconclusive: 8.2 µM [falling, partial curve]	
CCN(C(=O)CN1C(=O)S/C(=C\c2ccc(F)cc2)C1=O)C1CCS(=O)(=O)C1 (stereo not drawn)	inconclusive: 18.4 µM [activator, partial curve, poor fit]	
Cc1ccc(C(=O)Nc2cccc3cccnc23)cc1Cl	inconclusive: 6.51 µM [activator, partial curve]	
Nc1cnc(-c2ccccc2)nc1Cl	inconclusive: 29.1 µM [activator, single point]	

Given as labelled records: entries from further up.
Cc1ccc(C(=O)Nc2cccc3cccnc23)cc1Cl
  Potency: inconclusive: 6.51 µM [activator, partial curve]
Nc1cnc(-c2ccccc2)nc1Cl
  Potency: inconclusive: 29.1 µM [activator, single point]
